The other results are listed elsewhere or left out.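 The calls were made as follows: active = dose-dependent thermal stabilisation significant by F-test of dose-response against flat model at 10% FDR; inactive = not significant.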
What follows are targets tested with Nc1nc2c(ncn2[C@@H]2O[C@H](COP(=O)(O)OP(=O)(O)OP(=O)(O)O)[C@@H](O)[C@H]2O)c(=O)[nH]1 (assay: dose-dependent thermal stabilisation call (2D-TPP, DLPTP, 10% FDR) (binary (1 = stabilised)); higher = stabilised by the compound). Settings: system: Jurkat gel-filtered lysate; concentration range 1-500 µM.
Method: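 2D thermal proteome profiling in gel-filtered Jurkat E6.1 lysate (2 mg/ml) treated with NaGTP (0, 1, 10, 100, 500 uM) for 10 min at room temperature, then heated 3 min at one of 12 temperatures (42-63.9 C). Soluble protein was quantified by TMT10 MS. The value is the DLPTP call of the paper: dose-dependent thermal stabilisation over all temperatures at 10% FDR (F-test of a dose-response against a flat model); one experiment, one call per tested protein.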

Amino acid sequences for entries named in this document (tags omitted). A change or cut given only in a name is not applied to a line headed by its entry.
UniProt Q9Y2K1: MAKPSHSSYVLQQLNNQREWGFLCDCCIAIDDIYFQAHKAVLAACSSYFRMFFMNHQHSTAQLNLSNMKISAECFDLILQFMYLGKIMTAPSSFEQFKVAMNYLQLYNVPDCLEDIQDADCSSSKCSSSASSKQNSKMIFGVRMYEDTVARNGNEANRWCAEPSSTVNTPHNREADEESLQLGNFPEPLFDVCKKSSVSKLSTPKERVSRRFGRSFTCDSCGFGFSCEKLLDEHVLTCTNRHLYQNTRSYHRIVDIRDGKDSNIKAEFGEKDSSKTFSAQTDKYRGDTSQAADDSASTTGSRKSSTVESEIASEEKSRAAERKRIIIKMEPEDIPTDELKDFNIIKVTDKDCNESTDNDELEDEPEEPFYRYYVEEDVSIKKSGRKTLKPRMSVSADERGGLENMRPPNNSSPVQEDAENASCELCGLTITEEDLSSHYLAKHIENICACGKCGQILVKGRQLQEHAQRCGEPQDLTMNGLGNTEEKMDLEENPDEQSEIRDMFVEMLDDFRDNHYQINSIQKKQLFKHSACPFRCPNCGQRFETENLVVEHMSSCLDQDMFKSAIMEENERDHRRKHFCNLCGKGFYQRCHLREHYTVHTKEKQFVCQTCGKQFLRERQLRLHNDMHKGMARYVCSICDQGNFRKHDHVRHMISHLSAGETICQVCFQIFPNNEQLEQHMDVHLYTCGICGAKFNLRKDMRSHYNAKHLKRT
UniProt P67809, whole entry: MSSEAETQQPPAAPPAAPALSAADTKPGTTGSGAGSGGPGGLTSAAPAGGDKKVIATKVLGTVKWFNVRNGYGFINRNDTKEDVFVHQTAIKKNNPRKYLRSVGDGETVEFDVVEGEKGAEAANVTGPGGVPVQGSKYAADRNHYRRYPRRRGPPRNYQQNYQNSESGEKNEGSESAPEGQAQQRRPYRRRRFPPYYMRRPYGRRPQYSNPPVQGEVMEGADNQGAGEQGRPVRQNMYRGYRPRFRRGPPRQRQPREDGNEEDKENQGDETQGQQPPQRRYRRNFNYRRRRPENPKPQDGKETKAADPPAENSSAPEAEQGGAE
UniProt P68036, whole entry: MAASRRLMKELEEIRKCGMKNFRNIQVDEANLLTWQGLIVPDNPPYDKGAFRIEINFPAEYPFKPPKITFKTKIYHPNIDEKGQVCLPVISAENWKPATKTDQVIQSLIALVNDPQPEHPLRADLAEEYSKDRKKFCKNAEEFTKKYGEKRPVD
UniProt Q9H9H4: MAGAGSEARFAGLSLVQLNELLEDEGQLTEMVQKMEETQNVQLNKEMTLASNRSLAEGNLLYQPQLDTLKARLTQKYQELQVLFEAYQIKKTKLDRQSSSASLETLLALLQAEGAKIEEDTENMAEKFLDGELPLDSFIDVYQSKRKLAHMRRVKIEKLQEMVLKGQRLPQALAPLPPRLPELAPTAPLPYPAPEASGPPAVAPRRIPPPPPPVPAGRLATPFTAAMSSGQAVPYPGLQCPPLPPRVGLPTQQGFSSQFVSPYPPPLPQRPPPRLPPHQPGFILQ
UniProt Q5JSH3: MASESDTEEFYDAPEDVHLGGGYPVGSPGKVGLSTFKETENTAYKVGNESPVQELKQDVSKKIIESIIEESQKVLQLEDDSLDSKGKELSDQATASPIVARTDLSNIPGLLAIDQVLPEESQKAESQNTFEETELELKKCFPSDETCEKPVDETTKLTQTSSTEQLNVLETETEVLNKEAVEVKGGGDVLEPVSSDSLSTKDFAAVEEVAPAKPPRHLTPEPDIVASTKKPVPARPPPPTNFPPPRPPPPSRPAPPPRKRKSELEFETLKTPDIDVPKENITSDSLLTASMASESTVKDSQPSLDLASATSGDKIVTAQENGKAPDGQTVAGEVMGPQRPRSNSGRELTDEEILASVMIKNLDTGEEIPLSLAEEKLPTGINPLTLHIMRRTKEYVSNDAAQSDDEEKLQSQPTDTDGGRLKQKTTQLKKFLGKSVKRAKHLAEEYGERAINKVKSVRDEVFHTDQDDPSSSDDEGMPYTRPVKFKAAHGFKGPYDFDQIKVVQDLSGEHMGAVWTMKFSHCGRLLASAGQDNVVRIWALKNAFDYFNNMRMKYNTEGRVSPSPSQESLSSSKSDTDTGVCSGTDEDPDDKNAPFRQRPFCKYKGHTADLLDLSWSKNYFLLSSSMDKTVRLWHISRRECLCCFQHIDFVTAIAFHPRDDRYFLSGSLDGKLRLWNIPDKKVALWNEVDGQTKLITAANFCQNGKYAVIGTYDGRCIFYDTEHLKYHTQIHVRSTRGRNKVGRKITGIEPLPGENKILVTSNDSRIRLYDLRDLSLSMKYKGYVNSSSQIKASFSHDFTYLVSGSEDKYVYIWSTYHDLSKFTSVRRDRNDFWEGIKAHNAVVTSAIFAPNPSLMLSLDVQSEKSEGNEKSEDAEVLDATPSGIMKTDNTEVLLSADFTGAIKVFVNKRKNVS
UniProt P15498: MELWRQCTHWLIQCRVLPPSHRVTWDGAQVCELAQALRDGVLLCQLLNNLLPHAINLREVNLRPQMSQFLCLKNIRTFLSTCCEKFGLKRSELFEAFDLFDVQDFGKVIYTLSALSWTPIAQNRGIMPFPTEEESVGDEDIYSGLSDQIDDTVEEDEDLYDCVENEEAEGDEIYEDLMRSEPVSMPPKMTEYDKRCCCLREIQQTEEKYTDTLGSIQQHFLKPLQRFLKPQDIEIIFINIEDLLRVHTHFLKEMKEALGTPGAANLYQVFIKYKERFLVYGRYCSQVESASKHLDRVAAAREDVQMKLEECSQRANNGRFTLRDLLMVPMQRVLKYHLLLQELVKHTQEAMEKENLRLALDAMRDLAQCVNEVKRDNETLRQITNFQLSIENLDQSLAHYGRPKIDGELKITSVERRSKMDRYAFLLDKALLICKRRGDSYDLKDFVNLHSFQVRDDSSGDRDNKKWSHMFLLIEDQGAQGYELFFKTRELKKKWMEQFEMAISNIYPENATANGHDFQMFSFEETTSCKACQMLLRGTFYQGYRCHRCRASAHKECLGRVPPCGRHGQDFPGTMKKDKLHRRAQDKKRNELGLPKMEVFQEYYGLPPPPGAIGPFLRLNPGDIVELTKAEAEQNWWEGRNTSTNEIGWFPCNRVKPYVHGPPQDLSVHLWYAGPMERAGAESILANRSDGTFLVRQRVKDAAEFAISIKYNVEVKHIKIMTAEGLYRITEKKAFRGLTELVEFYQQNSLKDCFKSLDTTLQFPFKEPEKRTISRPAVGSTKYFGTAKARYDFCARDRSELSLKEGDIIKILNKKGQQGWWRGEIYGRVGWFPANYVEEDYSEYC
UniProt Q04917: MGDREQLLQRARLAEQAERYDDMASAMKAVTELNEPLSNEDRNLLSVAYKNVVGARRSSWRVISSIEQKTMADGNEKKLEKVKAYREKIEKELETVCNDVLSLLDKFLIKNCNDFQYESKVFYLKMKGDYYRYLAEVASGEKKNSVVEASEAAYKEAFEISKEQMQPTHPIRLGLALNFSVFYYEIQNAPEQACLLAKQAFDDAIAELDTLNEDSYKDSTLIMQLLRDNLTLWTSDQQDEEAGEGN
UniProt Q8TBF4: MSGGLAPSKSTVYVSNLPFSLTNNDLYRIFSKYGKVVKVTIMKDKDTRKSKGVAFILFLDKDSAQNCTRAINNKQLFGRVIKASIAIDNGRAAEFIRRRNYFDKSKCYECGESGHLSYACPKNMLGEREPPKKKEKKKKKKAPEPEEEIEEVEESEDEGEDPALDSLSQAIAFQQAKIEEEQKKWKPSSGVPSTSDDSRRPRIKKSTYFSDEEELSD
UniProt O00534: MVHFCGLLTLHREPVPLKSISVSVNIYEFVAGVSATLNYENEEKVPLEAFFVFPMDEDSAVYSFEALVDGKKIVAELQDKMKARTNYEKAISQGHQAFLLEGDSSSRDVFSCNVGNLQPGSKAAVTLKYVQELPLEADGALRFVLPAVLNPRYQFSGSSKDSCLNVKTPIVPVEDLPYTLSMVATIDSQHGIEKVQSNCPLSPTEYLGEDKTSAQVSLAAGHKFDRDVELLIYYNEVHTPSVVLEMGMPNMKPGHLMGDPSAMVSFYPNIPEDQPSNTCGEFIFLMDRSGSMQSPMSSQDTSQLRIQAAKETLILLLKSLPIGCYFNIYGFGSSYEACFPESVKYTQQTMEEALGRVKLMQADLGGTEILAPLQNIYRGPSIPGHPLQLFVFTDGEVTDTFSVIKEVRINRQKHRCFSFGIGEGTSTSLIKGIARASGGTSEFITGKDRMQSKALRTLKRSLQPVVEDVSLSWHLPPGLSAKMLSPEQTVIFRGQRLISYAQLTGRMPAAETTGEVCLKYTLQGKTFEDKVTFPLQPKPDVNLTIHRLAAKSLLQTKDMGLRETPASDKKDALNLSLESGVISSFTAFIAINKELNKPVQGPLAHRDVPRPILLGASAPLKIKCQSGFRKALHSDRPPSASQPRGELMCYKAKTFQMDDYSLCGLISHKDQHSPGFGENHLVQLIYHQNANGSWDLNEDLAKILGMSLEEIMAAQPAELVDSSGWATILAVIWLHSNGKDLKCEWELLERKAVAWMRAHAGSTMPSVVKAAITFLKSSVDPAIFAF
UniProt Q8N5P1: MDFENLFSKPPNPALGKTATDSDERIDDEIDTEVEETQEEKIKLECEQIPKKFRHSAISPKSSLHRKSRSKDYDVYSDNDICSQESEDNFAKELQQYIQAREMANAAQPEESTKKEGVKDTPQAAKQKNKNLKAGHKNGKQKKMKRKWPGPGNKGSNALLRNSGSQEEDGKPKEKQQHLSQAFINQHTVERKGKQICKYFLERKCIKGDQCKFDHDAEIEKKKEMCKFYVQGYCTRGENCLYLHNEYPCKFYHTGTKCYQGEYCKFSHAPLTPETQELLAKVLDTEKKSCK
UniProt Q8WU90: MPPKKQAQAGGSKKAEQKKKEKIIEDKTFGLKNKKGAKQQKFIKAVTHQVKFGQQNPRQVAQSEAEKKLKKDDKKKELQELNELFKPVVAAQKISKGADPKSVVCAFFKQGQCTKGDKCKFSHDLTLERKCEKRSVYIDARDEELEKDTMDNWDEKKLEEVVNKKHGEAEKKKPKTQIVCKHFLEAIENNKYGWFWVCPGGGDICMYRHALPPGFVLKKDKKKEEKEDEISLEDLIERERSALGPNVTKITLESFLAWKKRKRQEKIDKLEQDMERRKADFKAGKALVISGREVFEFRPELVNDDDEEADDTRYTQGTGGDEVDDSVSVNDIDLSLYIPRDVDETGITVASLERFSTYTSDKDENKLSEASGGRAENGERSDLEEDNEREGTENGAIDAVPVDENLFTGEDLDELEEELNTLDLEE
UniProt O94874: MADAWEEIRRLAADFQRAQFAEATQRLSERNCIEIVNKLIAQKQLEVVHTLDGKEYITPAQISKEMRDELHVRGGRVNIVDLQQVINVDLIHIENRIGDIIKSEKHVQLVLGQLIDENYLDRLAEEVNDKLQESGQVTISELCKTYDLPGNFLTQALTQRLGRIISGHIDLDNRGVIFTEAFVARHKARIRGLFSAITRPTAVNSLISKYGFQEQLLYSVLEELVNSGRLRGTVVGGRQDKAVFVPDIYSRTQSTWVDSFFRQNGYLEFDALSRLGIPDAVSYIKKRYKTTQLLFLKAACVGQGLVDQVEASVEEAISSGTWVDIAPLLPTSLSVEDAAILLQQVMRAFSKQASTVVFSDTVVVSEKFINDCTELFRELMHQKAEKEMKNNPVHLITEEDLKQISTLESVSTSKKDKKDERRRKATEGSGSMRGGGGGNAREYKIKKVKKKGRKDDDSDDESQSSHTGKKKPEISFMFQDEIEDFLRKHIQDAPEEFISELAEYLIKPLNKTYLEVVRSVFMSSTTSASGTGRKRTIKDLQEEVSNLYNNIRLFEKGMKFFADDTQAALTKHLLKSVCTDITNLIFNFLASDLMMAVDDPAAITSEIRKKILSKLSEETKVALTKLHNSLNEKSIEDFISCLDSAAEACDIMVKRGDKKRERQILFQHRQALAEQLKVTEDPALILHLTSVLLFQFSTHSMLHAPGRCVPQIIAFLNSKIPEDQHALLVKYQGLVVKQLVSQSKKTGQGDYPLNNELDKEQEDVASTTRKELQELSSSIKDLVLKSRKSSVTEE
UniProt O15498: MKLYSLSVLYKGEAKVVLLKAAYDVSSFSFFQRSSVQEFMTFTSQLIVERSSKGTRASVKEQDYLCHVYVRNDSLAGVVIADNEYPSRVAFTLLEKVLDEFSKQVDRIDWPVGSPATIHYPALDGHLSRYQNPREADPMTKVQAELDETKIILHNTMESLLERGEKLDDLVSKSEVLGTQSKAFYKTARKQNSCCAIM

| Target | dose-dependent thermal stabilisation call |
| --- | --- |
| USP39 (UniProt Q53GS9) | inactive: 0 |
| WDR18 (UniProt Q9BV38) | inactive: 0 |
| VIPAS39 (UniProt Q9H9C1) | inactive: 0 |
| XRCC4 (UniProt Q13426) | inactive: 0 |
| USP32 (UniProt Q8NFA0) | inactive: 0 |
| ZBTB1 (UniProt Q9Y2K1) | inactive: 0 |
| YBX1 (UniProt P67809) | inactive: 0 |
| UBE2L3 (UniProt P68036) | inactive: 0 |
| VPS37B (UniProt Q9H9H4) | inactive: 0 |
| WDR44 (UniProt Q5JSH3) | inactive: 0 |
| UBE2S (UniProt Q16763) | inactive: 0 |
| VAV1 (UniProt P15498) | active: 1 |
| YWHAH (UniProt Q04917) | inactive: 0 |
| VWA8 (UniProt A3KMH1) | active: 1 |
| WDR37 (UniProt Q9Y2I8) | inactive: 0 |
| ZCRB1 (UniProt Q8TBF4) | inactive: 0 |
| UFD1 (UniProt Q92890) | inactive: 0 |
| VWA5A (UniProt O00534) | inactive: 0 |
| UFC1 (UniProt Q9Y3C8) | inactive: 0 |
| VARS2 (UniProt Q5ST30) | inactive: 0 |

An excerpt of these results, bar-delimited:
Target | dose-dependent thermal stabilisation call
YBX1 (UniProt P67809) | inactive: 0
UBE2L3 (UniProt P68036) | inactive: 0
VPS37B (UniProt Q9H9H4) | inactive: 0

More results follow:

| Target | dose-dependent thermal stabilisation call |
| --- | --- |
| UBE3A (UniProt Q05086) | inactive: 0 |
| WDR70 (UniProt Q9NW82) | inactive: 0 |
| VPS53 (UniProt Q5VIR6) | active: 1 |
| WDR91 (UniProt A4D1P6) | inactive: 0 |
| XPO5 (UniProt Q9HAV4) | inactive: 0 |
| WDR77 (UniProt Q9BQA1) | inactive: 0 |
| WDSUB1 (UniProt Q8N9V3) | inactive: 0 |
| UBE2F (UniProt Q969M7) | inactive: 0 |
| WNK1 (UniProt Q9H4A3) | inactive: 0 |
| YLPM1 (UniProt P49750) | inactive: 0 |
| VEZF1 (UniProt Q14119) | inactive: 0 |
| USO1 (UniProt O60763) | inactive: 0 |
| ZC3H8 (UniProt Q8N5P1) | inactive: 0 |
| VPS29 (UniProt Q9UBQ0) | inactive: 0 |
| ZC3H15 (UniProt Q8WU90) | inactive: 0 |
| USP19 (UniProt O94966) | inactive: 0 |
| VPS26A (UniProt O75436) | inactive: 0 |
| UFL1 (UniProt O94874) | inactive: 0 |
| YKT6 (UniProt O15498) | inactive: 0 |
| ZEB1 (UniProt P37275) | inactive: 0 |

Reference: the supplement of paper PMC7666118
